Tested on: HeLa
Assay: Antiproliferative activity against human HeLa cells measured after 72 hrs by MTT assay
Assay type: functional, cell-based

## COc1cccc2c1C(=O)c1c(O)c3c(c(O)c1C2=O)C[C@@](O)(C(=O)CO)C[C@@H]3O[C@H]1C[C@H](N)[C@H](O)[C@H](C)O1 [DOXORUBICIN]
  IC50: 900 nM
